PMC11041046
Results are given in words; binding and its absence hold for the method and conditions named. For part of these data: In cells and extracts the contact can be indirect. Some entries that bind do so weakly or less than the wild type. Tags and fused reporters may be left off the sequences shown.

By UniProt entry, the sequences of proteins in these tests, tags left out.
UniProt Q86U44: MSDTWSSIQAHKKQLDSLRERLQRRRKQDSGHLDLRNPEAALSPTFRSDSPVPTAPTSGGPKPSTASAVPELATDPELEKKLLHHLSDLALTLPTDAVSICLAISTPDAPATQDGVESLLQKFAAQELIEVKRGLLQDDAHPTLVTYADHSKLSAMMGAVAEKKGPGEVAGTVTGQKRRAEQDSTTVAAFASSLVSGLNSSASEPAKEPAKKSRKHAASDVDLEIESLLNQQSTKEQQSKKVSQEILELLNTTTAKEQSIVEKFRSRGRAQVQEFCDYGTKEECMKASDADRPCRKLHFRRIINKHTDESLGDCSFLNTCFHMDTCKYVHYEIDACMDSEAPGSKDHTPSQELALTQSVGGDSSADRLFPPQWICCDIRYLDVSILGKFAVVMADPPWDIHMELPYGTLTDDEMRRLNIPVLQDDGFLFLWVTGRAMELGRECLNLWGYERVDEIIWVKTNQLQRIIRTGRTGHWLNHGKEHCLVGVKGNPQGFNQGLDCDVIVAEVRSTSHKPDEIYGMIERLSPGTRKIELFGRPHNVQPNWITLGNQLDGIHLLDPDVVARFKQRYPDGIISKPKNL

Columns and labels:
[1] = target: insulin-like growth factor 2 mRNA-binding protein 1 (IGF2BP1), Myc-tagged, Q9NZI8; assay: co-IP; mutual co-IP; PC-3 cell lysates immunoprecipitated with IgG or anti-Myc-tag antibody, Protein A/G magnetic beads; precipitates blotted for IGF2BP1/2/3; settings: remark: other sources report otherwise
[2] = target: insulin-like growth factor 2 mRNA-binding protein 2 (IGF2BP2), Myc-tagged, Q9Y6M1; assay: as above; settings: remark: other sources report otherwise
METTL3, Flag-tagged = METTL3, Flag-tagged (UniProt Q86U44); assay: co-IP; 293T-purified Flag-METTL3 mixed with 293T-purified HA-RBM15; mixture immunoprecipitated with IgG, anti-Flag and anti-HA antibody; blotted for both proteins; both purified

B1: insulin-like growth factor 2 mRNA-binding protein 2 (IGF2BP2), Myc-tagged, Q9Y6M1 1-599 (protein)
chain: MMNKLYIGNLSPAVTADDLRQLFGDRKLPLAGQVLLKSGYAFVDYPDQNWAIRAIETLSGKVELHGKIMEVDYSVSKKLRSRKIQIRNIPPHLQWEVLDGLLAQYGTVENVEQVNTDTETAVVNVTYATREEAKIAMEKLSGHQFENYSFKISYIPDEEVSSPSPPQRAQRGDHSSREQGHAPGGTSQARQIDFPLRILVPTQFVGAIIGKEGLTIKNITKQTQSRVDIHRKENSGAAEKPVTIHATPEGTSEACRMILEIMQKEADETKLAEEIPLKILAHNGLVGRLIGKEGRNLKKIEHETGTKITISSLQDLSIYNPERTITVKGTVEACASAEIEIMKKLREAFENDMLAVNQQANLIPGLNLSALGIFSTGLSVLSPPAGPRGAPPAAPYHPFTTHSGYFSSLYPHHQFGPFPHHHSYPEQEIVNLFIPTQAVGAIIGKKGAHIKQLARFAGASIKIAPAEGPDVSERMVIITGPPEAQFKAQGRIFGKLKEENFFNPKEEVKLEAHIRVPSSTAGRVIGKGGKTVNELQNLTSAEVIVPRDQTPDENEEVIVRIIGHFFASQTAQRKIREIVQQVKQQEQKYPQGVASQRSK
With B1 the binding [1] was “binds”.

B2: insulin-like growth factor 2 mRNA-binding protein 3 (IGF2BP3), Myc-tagged, O00425 1-579 (protein)
chain: MNKLYIGNLSENAAPSDLESIFKDAKIPVSGPFLVKTGYAFVDCPDESWALKAIEALSGKIELHGKPIEVEHSVPKRQRIRKLQIRNIPPHLQWEVLDSLLVQYGVVESCEQVNTDSETAVVNVTYSSKDQARQALDKLNGFQLENFTLKVAYIPDEMAAQQNPLQQPRGRRGLGQRGSSRQGSPGSVSKQKPCDLPLRLLVPTQFVGAIIGKEGATIRNITKQTQSKIDVHRKENAGAAEKSITILSTPEGTSAACKSILEIMHKEAQDIKFTEEIPLKILAHNNFVGRLIGKEGRNLKKIEQDTDTKITISPLQELTLYNPERTITVKGNVETCAKAEEEIMKKIRESYENDIASMNLQAHLIPGLNLNALGLFPPTSGMPPPTSGPPSAMTPPYPQFEQSETETVHLFIPALSVGAIIGKQGQHIKQLSRFAGASIKIAPAEAPDAKVRMVIITGPPEAQFKAQGRIYGKIKEENFVSPKEEVKLEAHIRVPSFAAGRVIGKGGKTVNELQNLSSAEVVVPRDQTPDENDQVVVKITGHFYACQVAQRKIQEILTQVKQHQQQKALQSGPPQSRRK
With B2 the binding [2] was “binds”.

B3: RBM15, HA-tagged (protein, UniProt Q96T37 1-977)
chain: MRTAGRDPVPRRSPRWRRAVPLCETSAGRRVTQLRGDDLRRPATMKGKERSPVKAKRSRGGEDSTSRGERSKKLGGSGGSNGSSSGKTDSGGGSRRSLHLDKSSSRGGSREYDTGGGSSSSRLHSYSSPSTKNSSGGGESRSSSRGGGGESRSSGAASSAPGGGDGAEYKTLKISELGSQLSDEAVEDGLFHEFKRFGDVSVKISHLSGSGSGDERVAFVNFRRPEDARAAKHARGRLVLYDRPLKIEAVYVSRRRSRSPLDKDTYPPSASVVGASVGGHRHPPGGGGGQRSLSPGGAALGYRDYRLQQLALGRLPPPPPPPLPRDLERERDYPFYERVRPAYSLEPRVGAGAGAAPFREVDEISPEDDQRANRTLFLGNLDITVTESDLRRAFDRFGVITEVDIKRPSRGQTSTYGFLKFENLDMSHRAKLAMSGKIIIRNPIKIGYGKATPTTRLWVGGLGPWVPLAALAREFDRFGTIRTIDYRKGDSWAYIQYESLDAAHAAWTHMRGFPLGGPDRRLRVDFADTEHRYQQQYLQPLPLTHYELVTDAFGHRAPDPLRGARDRTPPLLYRDRDRDLYPDSDWVPPPPPVRERSTRTAATSVPAYEPLDSLDRRRDGWSLDRDRGDRDLPSSRDQPRKRRLPEESGGRHLDRSPESDRPRKRHCAPSPDRSPELSSSRDRYNSDNDRSSRLLLERPSPIRDRRGSLEKSQGDKRDRKNSASAERDRKHRTTAPTEGKSPLKKEDRSDGSAPSTSTASSKLKSPSQKQDGGTAPVASASPKLCLAWQGMLLLKNSNFPSNMHLLQGDLQVASSLLVEGSTGGKVAQLKITQRLRLDQPKLDEVTRRIKVAGPNGYAILLAVPGSSDSRSSSSSAASDTATSTQRPLRNLVSYLKQKQAAGVISLPVGGNKDKENTGVLHAFPPCEFSQQFLDSPAKALAKSEEDYLVMIIVRGFGFQIGVRYENKKRENLALTLL
For B3, the binding (METTL3, Flag-tagged) was “binds”.
